The source of these data is US20170362650.

Results from cells or extracts need not show a direct contact. For some of these results: The comparison behind a weaker result is the experiment's own reference, which may not be listed here. Where a protein sequence is shown, tags need not be part of it. For some of these results: Construct, isoform or probe ends are uncertain for at least one entry. For some of these results: A negative result means that nothing was seen under these conditions.

Series [1] concerns the target T1, Max (Drosophila melanogaster) (UniProt P91664).
T1 sequence (looked up, limits assumed): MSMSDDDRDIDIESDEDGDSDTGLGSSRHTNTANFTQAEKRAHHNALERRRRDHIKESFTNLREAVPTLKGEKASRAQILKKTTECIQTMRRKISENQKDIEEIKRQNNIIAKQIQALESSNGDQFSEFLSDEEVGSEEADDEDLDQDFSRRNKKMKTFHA
Put plainly: footprint. As to conditions: in vivo ChIP-nexus, protein in cells, protein details: endogenous, S2 cells.

Series [2] has as its target T2, Twist (Drosophila melanogaster) (UniProt P10627).
T2 sequence (looked up, limits assumed): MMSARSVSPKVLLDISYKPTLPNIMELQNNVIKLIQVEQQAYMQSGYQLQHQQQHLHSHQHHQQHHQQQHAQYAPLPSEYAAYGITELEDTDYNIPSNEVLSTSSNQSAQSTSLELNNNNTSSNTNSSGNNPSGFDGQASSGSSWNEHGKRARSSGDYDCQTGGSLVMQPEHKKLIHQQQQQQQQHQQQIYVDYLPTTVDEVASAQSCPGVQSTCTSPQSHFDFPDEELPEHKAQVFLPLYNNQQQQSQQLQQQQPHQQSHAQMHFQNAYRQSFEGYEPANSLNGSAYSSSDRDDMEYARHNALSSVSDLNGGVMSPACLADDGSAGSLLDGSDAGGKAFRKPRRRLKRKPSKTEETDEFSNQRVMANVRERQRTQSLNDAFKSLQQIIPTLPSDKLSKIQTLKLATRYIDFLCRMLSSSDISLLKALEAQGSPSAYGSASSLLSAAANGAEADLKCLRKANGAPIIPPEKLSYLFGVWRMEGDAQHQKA
Put plainly: footprint. As to conditions: in vivo ChIP-nexus, protein in cells, protein details: endogenous, 2-4 h embryos.

Setting [3] is: E-box variants other than CACGTG and CACATG not significantly bound.

As to CACGTG (double strand) [E-box CACGTG], the binding result in series [1] (strongest E-box, boundaries 8 bp outside motif) was “binds”.

For CACATG (double strand) [E-box CACATG], the binding result is “binds more weakly” in series [1] (smaller but otherwise identical footprint) and “binds” in series [2] (outer boundary at 11 bp dominant to lesser extent).

Take CATATG (double strand) [E-box CATATG]: the binding result in series [1] (setting [3]) is “no binding”; in series [2] (outer boundary at 11 bp dominant), “binds”.

Consider CAGATG (double strand) [E-box CAGATG], for which the results for the binding result in series [1] (setting [3]) and in series [2] (inner boundary at 2 bp more prominent) were “no binding” and “binds”, respectively.
